Record: PubChem BioAssay AID1259308 (NCATS, 2017)
Shown is a random part of about 59,000 reagents tested. Of all reagents, about 1,510 (2.6%) are marked active. 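Calls use total luciferase alone and ignore viability, so some active siRNAs may act by altering cell number.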 A number with no mark means an inactive call. The numbers tell different reagents against one gene apart. Further read-outs or replicates are left out here.

Assay: 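Knock-downs that increase output of a recombinant reporter protein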 (primary screen)
Cell system: human HEK293 embryonic kidney cells stably expressing firefly luciferase (HEK-CMV-Luc2-Hygro)
Reagent: single siRNA against human genes, 0.8 pmol siRNA per well
Timing: 72 h
Measurement: 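Reporter luminescence and viable-cell signal on separate replicate plates, given as percent of non-targeting control and median/MAD z-scores, plus per-cell luciferase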
Reading the numbers: total luciferase, z-score: higher = more reporter protein produced
Rule for the call: 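Active when the median/MAD z-score for overall luciferase is greater than 3; a gene was taken forward for validation with new siRNAs if at least two of its three siRNAs passed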
Calls: active = raised luciferase; inactive = no rise

total luciferase, z-score, by target gene and reagent
MROH5 (maestro heat like repeat family member 5 (gene/pseudogene)): #1 -0.36; #2 -0.366; #3 0.368
XDH (xanthine dehydrogenase): #1 -2.09; #2 -0.424; #3 -0.101
PRSS33 (serine protease 33): #1 -2.29; #2 -0.281; #3 -1.79
GPR31 (G protein-coupled receptor 31): #1 -2.67; #2 0.323; #3 -2.13
KIAA1549: #1 0.93; #2 1.62; #3 0.438
CEP104 (centrosomal protein 104): #1 -0.457; #2 0.321; #3 0.373
ING3 (inhibitor of growth family member 3): #1 2.41; #2 0.687; #3 0.287
ATG4C (autophagy related 4C cysteine peptidase): #1 -0.96; #2 0.208; #3 0.0179
MGST3 (microsomal glutathione S-transferase 3): #1 -1.07; #2 0.278; #3 -0.312
DPH2 (diphthamide biosynthesis 2): #1 -0.604; #2 -0.234; #3 2.63
FURIN (furin, paired basic amino acid cleaving enzyme): #1 -2.56; #2 -0.607; #3 -1.62
PDE3B (phosphodiesterase 3B): #1 -0.0839; #2 0.152; #3 -0.504
TRAPPC1 (trafficking protein particle complex subunit 1): #1 3.55 (active); #2 -0.671; #3 -0.198
C15orf62 (chromosome 15 open reading frame 62): #1 0.47; #2 0.176; #3 0.97
RPL27 (ribosomal protein L27): #1 -2.38; #2 -2.18; #3 -2.66
FAM168B (family with sequence similarity 168 member B): #1 -0.583; #2 2.05; #3 0.267
SUB1 (SUB1 regulator of transcription): #1 -1.24; #2 -0.236; #3 -1.88
CUEDC1 (CUE domain containing 1): #1 -1.71; #2 -1.18; #3 -0.149
MTMR2 (myotubularin related protein 2): #1 -1.02; #2 -0.6; #3 -0.967
ZBTB26 (zinc finger and BTB domain containing 26): #1 0.0963; #2 -0.115; #3 1.37
AGBL1-AS1 (AGBL1 antisense RNA 1): #1 -1.42; #2 -0.54; #3 0.382
PTGS1 (prostaglandin-endoperoxide synthase 1): #1 0.362; #2 0.291; #3 -0.347
PGM2L1 (phosphoglucomutase 2 like 1): #1 -0.41; #2 0.247; #3 1.07
RPS28P3 (ribosomal protein S28 pseudogene 3): #1 1.21; #2 -0.883; #3 -0.249
OC90 (otoconin 90): #1 -0.208; #2 0.0934; #3 -0.804

A portion from the list above, as a working copy:
total luciferase, z-score, by target gene and reagent
GPR31 (G protein-coupled receptor 31): #1 -2.67; #2 0.323; #3 -2.13
KIAA1549: #1 0.93; #2 1.62; #3 0.438
CEP104 (centrosomal protein 104): #1 -0.457
